From publication PMC10587169, “Tuning aminopolycarboxylate chelators for efficient complexation of trivalent actinides” (Scientific Reports, 2023)

Assays:
[1] = Slope analysis of liquid-liquid distribution data, ligand-to-metal stoichiometry; type: binding; conditions: all collected distribution data
[2] = Competitive complexation liquid-liquid extraction with HDEHP; type: binding; conditions: slope analysis
Procedure: Stability constants for the coordination of Eu^3+, Am^3+, Cm^3+, and Cf^3+ were also achieved by monitoring the suppression of liquid–liquid partitioning of the radiotracer due to the increasing presence of an aqueous complexant. Aqueous solutions were prepared containing sub-millimolar amounts of ligand while maintaining p[H^+] at 1.7, 1.8, 1.9, 2.0, and 2.1. Ionic strength was maintained at 2.00 M using sodium perchlorate. Aqueous complexation was balanced with the appropriate choice of HDEHP concentration in octane to allow accurate quantification of metal distribution. Non-aqueous phases were pre-equilibrated three times with 2.00 M NaClO4 at the corresponding p[H^+]. Preliminary time-dependent studies indicated the phase transfer equilibrium was attained for all measurements with H4octapa and H4pypa-peg (Figures S2 and S3 in the SI). For the mixtures traced with radioisotopes, the activity was measured using gamma spectroscopy (ORTEC GEM50P4 coaxial HPGe detector, DSPEC gamma spectrometer) for ^154Eu (123.07 keV), ^243Am (74.66 keV), and ^249Cf (388.17 keV) and liquid scintillation counting (Perkin Elmer Tri-Carb 3180 TR/SL) for ^248Cm. […]
Liquid–liquid partitioning of trivalent f-elements was monitored in presence of H4octapa and H4pypa-peg using a strong liquid cation exchanger, bis–(2-ethylhexyl)phosphoric acid, HDEHP. […]

[3] = Luminescence lifetime measurements, ligand-induced metal dehydration; conditions: Eu3+ and H4pypa-peg mixture

Structure (SMILES)	average ligand-to-metal stoichiometry [1]	stoichiometry for the extraction of trivalent metal ion by HDEHP ([2]; 249Cf3+, for H4octapa (SI Figure S10B))	stoichiometry for the extraction of trivalent metal ion by HDEHP ([2]; for H4pypa-peg (SI Figure S11B))	calculated hydration number ηH2O (± 0.5) from τ1 ([3]; p[H+] 1.54)	Luminescence lifetime decay τ1 ([3]; p[H+] 1.54, I = 2.00 M (H+,Na+)ClO4) [μs]	calculated hydration number ηH2O (± 0.5) from τ1 ([3]; p[H+] 1.99)	calculated hydration number ηH2O (± 0.5) from τ2 ([3]; p[H+] 1.99)	Luminescence lifetime decay τ1 ([3]; p[H+] 1.99, biexponential fit) [μs]	Luminescence lifetime decay τ2 ([3]; p[H+] 1.99, biexponential fit) [μs]	Luminescence lifetime decay τ1 ([3]; p[H+] 4.70) [μs]	calculated hydration number ηH2O (± 0.5) from τ1 ([3]; p[H+] 4.70)
O=C(O)CN(CCN(CC(=O)O)Cc1cccc(C(=O)O)n1)Cc1cccc(C(=O)O)n1 [H4octapa, 6,6′-((ethane-1,2-diylbis–((carboxymethyl)azanediyl))bis–(methylene))dipicolinic acid]	1.00 ± 0.04	–	–	–	–	–	–	–	–	–	–
CCCCC(CC)COP(=O)(O)OCC(CC)CCCC (stereo not drawn) [HDEHP, Bis(2-ethylhexyl)phosphoric acid]	–	2.85 ± 0.03	2.78 ± 0.13	–	–	–	–	–	–	–	–
O=C(O)CN(Cc1cc(-c2cn(CCOCCOCCO)nn2)cc(CN(CC(=O)O)Cc2cccc(C(=O)O)n2)n1)Cc1cccc(C(=O)O)n1 [H4pypa-peg, 6,6'-((((4-(1-(2-(2-(2-hydroxyethoxy)ethoxy)ethyl)-1H-1,2,3-triazol-4-yl)pyridine-2,6-diyl)bis–(methylene))bis–((carboxymethyl)azanediyl))bis–(methylene)) dipicolinic acid]	1.00 ± 0.03	–	–	1.7	482.9	2.2	1.4	401.5	557.9	879.7	0.8
